The assay addresses C-terminal tandem affinity purification (TAP)-tagged IncA (Caulobacter crescentus). As to the kind of experiment: affinity purification with mass spectrometry.

No constants are given. Whether binding was seen depends on the method and setting. Binding seen in cells or lysates may run through a third protein. Here binding means that the protein was enriched with, or labelled near, the bait; the list need not be complete.

B1: β-sliding clamp DnaN (protein, UniProt B8GXP6 1-372)
chain: MKLTIERAALLKALGHVQSVVERRNTIPILSNILLSAEGDRLSFSATDLDMEIIDEGFAQIDVPGQITAPAHTLYEIVRKLPDGADVSLSFSGDDPRLVIQAGRSRFNLPVLPAGDFPVMSSDGLSSRIAVDTNELIRLIDKTRFAISTEETRYYLNGLYVHTVNEGGETKLRAVATDGHRLALAEMPAPEGAVGIPGVIVPRKTIAEARRLMESAGETVDLQVSPQKVRFEFGAAALTSKVIDGAFPDYMRVIPRDNAKILTLDNDLFAKAVDRVATISAEKSRSVKLAVEPGRITLTVRNMEAGQAVEEVEVDYDGEPFEIGFNARYLLDVCGQIAGPQAEFRFADPASPTLVVDPVDPGVKYVLMPLRV
For the molecule B1, the binding result is on record as “binds”.

For the origin of these results see publication doi:10.1101/2025.01.13.632716.
